Test results: PMC4476799, “Englerin A Agonizes the TRPC4/C5 Cation Channels to Inhibit Tumor Cell Line Proliferation” (PLoS ONE, 2015)
The source gives many values for each of these; only a part stands here.

System: cancer cell lines from the cancer cell line encyclopedia (CCLE)
Assay: Cell line profiling (CLiP) proliferation experiment
Assay type: cell-based
Parameters: ACTIVITY_AREA: scale not given here; AMAX: unit not given here
Description: Compound profiling experiment and data analysis was performed as previously described. Data was imported and plotted using the Tibco Spotfire DXP application. Lines were categorized as sensitive, intermediate and refractory as follows: Amax<-40 & Inflection Point <2 ~ Sensitive, Amax>-20 & Inflection Point >10 ~ Refractory, all else were called Intermediate. Cancer Cell line HG-U133 Plus 2 data was processed and normalized as described. […] Five sets of refractory cell lines were generated from the pool of refractory cell lines trying to match the lineage composition of the set of sensitive cell lines. The limma package was used as previously described to perform the statistical comparison.

[1] = KYO-1 (haematopoietic_and_lymphoid_tissue)

CC(C)[C@@]12C[C@@H](O)[C@@](C)(O1)[C@@H]1CC[C@@H](C)[C@H]1[C@@H]2OC(=O)/C=C/c1ccccc1 [Englerin B]
AMAX (KCL-22): -86.03 | RESPONSE (KCL-22): INTERMEDIATE | ACTIVITY_AREA (KCL-22 cells): 43.03 | AMAX (KCL-22 cells): -86.03 | RESPONSE (KCL-22 cells): INTERMEDIATE | ACTIVITY_AREA (KELLY): 53.88 | AMAX (KELLY): -99.41 | RESPONSE (KELLY): INTERMEDIATE | ACTIVITY_AREA (KHM-1B): 22.65 | AMAX (KHM-1B): -74.36 | RESPONSE (KHM-1B): INTERMEDIATE | ACTIVITY_AREA (KHM-1B cells): 22.65 | AMAX (KHM-1B cells): -74.36 | RESPONSE (KHM-1B cells): INTERMEDIATE | ACTIVITY_AREA (KLE): 36.8 | AMAX (KLE): -42.78 | RESPONSE (KLE): INTERMEDIATE | ACTIVITY_AREA (KM12): 27.86 | AMAX (KM12): -33.54 | RESPONSE (KM12): INTERMEDIATE | ACTIVITY_AREA (KM12 cells): 27.86 | AMAX (KM12 cells): -33.54 | RESPONSE (KM12 cells): INTERMEDIATE | ACTIVITY_AREA (KMM-1): 70.57 | AMAX (KMM-1): -76.76 | RESPONSE (KMM-1): INTERMEDIATE | ACTIVITY_AREA (KMM-1 cells): 70.57 | AMAX (KMM-1 cells): -76.76 | RESPONSE (KMM-1 cells): INTERMEDIATE | ACTIVITY_AREA (KMRC-1): 11.39 | AMAX (KMRC-1): -23.55 | RESPONSE (KMRC-1): INTERMEDIATE | ACTIVITY_AREA (KMRC-1 cells): 11.39 | AMAX (KMRC-1 cells): -23.55 | RESPONSE (KMRC-1 cells): INTERMEDIATE | ACTIVITY_AREA (KMRC-2): 12.6 | AMAX (KMRC-2): 11.12 | RESPONSE (KMRC-2): REFRACTORY | ACTIVITY_AREA (KMRC-2 cells): 12.6 | AMAX (KMRC-2 cells): 11.12 | RESPONSE (KMRC-2 cells): REFRACTORY | ACTIVITY_AREA (KMRC-20): 20.95 | AMAX (KMRC-20): -16.57 | RESPONSE (KMRC-20): INTERMEDIATE | ACTIVITY_AREA (KMRC-20 cells): 20.95 | AMAX (KMRC-20 cells): -16.57 | RESPONSE (KMRC-20 cells): INTERMEDIATE | ACTIVITY_AREA (KMS-11): 56.95 | AMAX (KMS-11): -88.04 | RESPONSE (KMS-11): INTERMEDIATE | ACTIVITY_AREA (KMS-11 cells): 56.95 | AMAX (KMS-11 cells): -88.04 | RESPONSE (KMS-11 cells): INTERMEDIATE | ACTIVITY_AREA (KMS-12-BM): 24.11 | AMAX (KMS-12-BM): -61.82 | RESPONSE (KMS-12-BM): INTERMEDIATE | ACTIVITY_AREA (KMS-12-BM cells): 24.11 | AMAX (KMS-12-BM cells): -61.82 | RESPONSE (KMS-12-BM cells): INTERMEDIATE | ACTIVITY_AREA (KMS-26): 41.57 | AMAX (KMS-26): -70.18 | RESPONSE (KMS-26): INTERMEDIATE | ACTIVITY_AREA (KMS-26 cells): 41.57 | AMAX (KMS-26 cells): -70.18 | RESPONSE (KMS-26 cells): INTERMEDIATE | ACTIVITY_AREA (KMS-27): 14.64 | AMAX (KMS-27): -52.87 | RESPONSE (KMS-27): INTERMEDIATE | ACTIVITY_AREA (KMS-27 cells): 14.64 | AMAX (KMS-27 cells): -52.87 | RESPONSE (KMS-27 cells): INTERMEDIATE | ACTIVITY_AREA (KMS-28BM): 29.69 | AMAX (KMS-28BM): -50.99 | RESPONSE (KMS-28BM): INTERMEDIATE | ACTIVITY_AREA (KMS-34): 20.59 | AMAX (KMS-34): -54.42 | RESPONSE (KMS-34): INTERMEDIATE | ACTIVITY_AREA (KMS-34 cells): 20.59 | AMAX (KMS-34 cells): -54.42 | RESPONSE (KMS-34 cells): INTERMEDIATE | ACTIVITY_AREA (KNS-62): 15.11 | AMAX (KNS-62): -29.24 | RESPONSE (KNS-62): INTERMEDIATE | ACTIVITY_AREA (KNS-62 cells): 15.11 | AMAX (KNS-62 cells): -29.24 | RESPONSE (KNS-62 cells): INTERMEDIATE | ACTIVITY_AREA (KO52): 16.9 | AMAX (KO52): -64.86 | RESPONSE (KO52): INTERMEDIATE | ACTIVITY_AREA (KO52 cells): 16.9 | AMAX (KO52 cells): -64.86 | RESPONSE (KO52 cells): INTERMEDIATE | ACTIVITY_AREA (KP-1NL): 50 | AMAX (KP-1NL): -47.73 | RESPONSE (KP-1NL): INTERMEDIATE | ACTIVITY_AREA (KP-1NL (pancreas)): 50 | AMAX (KP-1NL (pancreas)): -47.73 | RESPONSE (KP-1NL (pancreas)): INTERMEDIATE | ACTIVITY_AREA (KP-N-SI9s): 39.08 | AMAX (KP-N-SI9s): -59.99 | RESPONSE (KP-N-SI9s): INTERMEDIATE | ACTIVITY_AREA (KP-N-YN): 7.56 | AMAX (KP-N-YN): 5.57 | RESPONSE (KP-N-YN): REFRACTORY | ACTIVITY_AREA (KP-N-YN (autonomic_ganglia)): 7.56 | AMAX (KP-N-YN (autonomic_ganglia)): 5.57 | RESPONSE (KP-N-YN (autonomic_ganglia)): REFRACTORY | ACTIVITY_AREA (KPL-1): 54.67 | RESPONSE (KPL-1): INTERMEDIATE | ACTIVITY_AREA (KPL-1 (breast)): 54.67 | AMAX (KPL-1 (breast)): -60.19 | RESPONSE (KPL-1 (breast)): INTERMEDIATE | ACTIVITY_AREA (KS-1): 91.4 | AMAX (KS-1): -50.57 | RESPONSE (KS-1): INTERMEDIATE | ACTIVITY_AREA (KS-1 (central_nervous_system)): 91.4 | AMAX (KS-1 (central_nervous_system)): -50.57 | RESPONSE (KS-1 (central_nervous_system)): INTERMEDIATE | ACTIVITY_AREA (KU812): 70.55 | AMAX (KU812): -93.11 | RESPONSE (KU812): INTERMEDIATE | ACTIVITY_AREA (KU812 cells): 70.55 | AMAX (KU812 cells): -93.11 | RESPONSE (KU812 cells): INTERMEDIATE | ACTIVITY_AREA (KURAMOCHI (ovary)): 41.47 | AMAX (KURAMOCHI (ovary)): -57.84 | RESPONSE (KURAMOCHI (ovary)): INTERMEDIATE | ACTIVITY_AREA (KYM-1 (soft_tissue)): 74.89 | AMAX (KYM-1 (soft_tissue)): -73.57 | RESPONSE (KYM-1 (soft_tissue)): INTERMEDIATE | ACTIVITY_AREA (KYM-1 cells): 74.89 | AMAX (KYM-1 cells): -73.57 | RESPONSE (KYM-1 cells): INTERMEDIATE | ACTIVITY_AREA [1]: 32.54 | AMAX [1]: -58.34 | RESPONSE [1]: INTERMEDIATE | ACTIVITY_AREA (KYO-1 cells): 32.54 | AMAX (KYO-1 cells): -58.34 | RESPONSE (KYO-1 cells): INTERMEDIATE | ACTIVITY_AREA (KYSE-30 (oesophagus)): 9.52 | AMAX (KYSE-30 (oesophagus)): -43 | RESPONSE (KYSE-30 (oesophagus)): INTERMEDIATE | ACTIVITY_AREA (KYSE-70 (oesophagus)): 35.67 | AMAX (KYSE-70 (oesophagus)): -51.81 | RESPONSE (KYSE-70 (oesophagus)): INTERMEDIATE | ACTIVITY_AREA (KYSE-150 (oesophagus)): 32.32 | AMAX (KYSE-150 (oesophagus)): -38.06 | RESPONSE (KYSE-150 (oesophagus)): INTERMEDIATE | ACTIVITY_AREA (KYSE-270 (oesophagus)): 78.27 | AMAX (KYSE-270 (oesophagus)): -38.17 | RESPONSE (KYSE-270 (oesophagus)): INTERMEDIATE | ACTIVITY_AREA (KYSE-410 (oesophagus)): 61.52 | AMAX (KYSE-410 (oesophagus)): -56.07 | RESPONSE (KYSE-410 (oesophagus)): INTERMEDIATE | ACTIVITY_AREA (KYSE-410 cells): 61.52 | AMAX (KYSE-410 cells): -56.07 | RESPONSE (KYSE-410 cells): INTERMEDIATE | ACTIVITY_AREA (KYSE-450 (oesophagus)): 26.55 | AMAX (KYSE-450 (oesophagus)): -37.05 | RESPONSE (KYSE-450 (oesophagus)): INTERMEDIATE | ACTIVITY_AREA (KYSE-450 cells): 26.55 | AMAX (KYSE-450 cells): -37.05 | RESPONSE (KYSE-450 cells): INTERMEDIATE | ACTIVITY_AREA (KYSE-510 (oesophagus)): 54.71 | AMAX (KYSE-510 (oesophagus)): -38.87 | RESPONSE (KYSE-510 (oesophagus)): INTERMEDIATE | ACTIVITY_AREA (KYSE-520 (oesophagus)): 48.13 | AMAX (KYSE-520 (oesophagus)): -67.28 | RESPONSE (KYSE-520 (oesophagus)): INTERMEDIATE | ACTIVITY_AREA (Ki-JK): 33.09 | AMAX (Ki-JK): -86.88 | RESPONSE (Ki-JK): INTERMEDIATE
